# The whole screen tested about 220,000 compounds, of which about 910 (0.41%) were called active. This list was built around the results that the source calls inconclusive (neither active nor inactive); the mix of calls is not that of the screen.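 How the source made its calls: active means primary inhibition above the hit cutoff, then over 50% inhibition at one or more dose response concentrations (cut at about 23% in these data, passing the limit was not always enough); inconclusive means conflicting primary data, or primary hits not chosen for dose response; inactive means low primary inhibition, or under 50% at every dose.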
# Amino acid sequences for entries named in this document (tags omitted). A change or cut given only in a name is not applied to a line headed by its entry.
# UniProt O96935: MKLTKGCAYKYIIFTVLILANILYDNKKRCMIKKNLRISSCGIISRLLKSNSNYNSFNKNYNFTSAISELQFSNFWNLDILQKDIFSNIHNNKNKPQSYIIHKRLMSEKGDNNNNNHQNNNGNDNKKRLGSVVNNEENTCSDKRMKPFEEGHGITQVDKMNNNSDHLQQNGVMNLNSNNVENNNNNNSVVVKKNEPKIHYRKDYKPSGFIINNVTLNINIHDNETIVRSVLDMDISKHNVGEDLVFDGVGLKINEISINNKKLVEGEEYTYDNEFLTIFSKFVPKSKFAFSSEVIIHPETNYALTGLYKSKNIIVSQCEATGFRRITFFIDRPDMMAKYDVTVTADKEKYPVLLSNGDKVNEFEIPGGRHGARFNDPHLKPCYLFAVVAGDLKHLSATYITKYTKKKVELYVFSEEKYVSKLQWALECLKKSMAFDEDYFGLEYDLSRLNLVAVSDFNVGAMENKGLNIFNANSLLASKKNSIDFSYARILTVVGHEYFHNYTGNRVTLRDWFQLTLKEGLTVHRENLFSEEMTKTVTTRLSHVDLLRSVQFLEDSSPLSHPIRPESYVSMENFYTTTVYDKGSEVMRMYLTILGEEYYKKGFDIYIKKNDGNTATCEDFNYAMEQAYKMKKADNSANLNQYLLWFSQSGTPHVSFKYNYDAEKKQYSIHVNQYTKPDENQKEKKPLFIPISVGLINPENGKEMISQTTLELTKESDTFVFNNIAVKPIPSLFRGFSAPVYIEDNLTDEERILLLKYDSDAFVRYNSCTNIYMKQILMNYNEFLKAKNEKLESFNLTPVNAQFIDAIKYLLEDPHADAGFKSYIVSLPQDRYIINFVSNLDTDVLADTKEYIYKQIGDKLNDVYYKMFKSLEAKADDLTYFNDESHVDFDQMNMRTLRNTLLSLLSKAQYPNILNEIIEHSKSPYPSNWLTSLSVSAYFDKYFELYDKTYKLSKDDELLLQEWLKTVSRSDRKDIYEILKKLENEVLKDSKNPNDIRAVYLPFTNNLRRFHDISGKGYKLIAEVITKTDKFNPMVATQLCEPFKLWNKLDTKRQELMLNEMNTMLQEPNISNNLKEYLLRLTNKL
# Biological target: Aminopeptidase N (Plasmodium falciparum (isolate 3D7)) (UniProt O96935)
# Test: P. falciparum M1AAP inhibitors, biochemical, fluorogenic H-Leu-NHMec substrate, 1536-well (AID 1445);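 further: plate controls were DMSO full reaction for no effect and no enzyme background for full effect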
# Settings: recombinant M1AAP, H-Leu-NHMec fluorogenic kinetic assay; at 30 µM, stronger effect = higher value unless noted
row,Structure (SMILES),inhibition
1,CCN1CCN(CC(=O)N/N=C/c2ccc(F)cc2F)CC1,inactive: 15.6%
2,Cc1cccc(S(=O)(=O)c2c(N)n(Cc3ccco3)c3nc4ccccc4nc23)c1,inactive: 20.6%
3,Cc1ccc(C(=O)Nc2ccc(Oc3ccc(C(=O)O)c(C(=O)O)c3)cc2)cc1C,inactive: 5.36%
4,Cc1ccc2nc3c(cc(C(=O)NCC4CCCO4)c(=N)n3CCCOC(C)C)c(=O)n2c1 (stereo unspecified),inconclusive: 24.8%
5,Cc1ccc2[nH]c(=O)c(NC(N)=S)nc2c1,inconclusive: 24.5%
6,CCCc1cc(SCC(=O)Nc2c(C)n(C)n(-c3ccccc3)c2=O)n2c(nc3ccccc32)c1C#N,inconclusive: 27%
7,Cc1ccc(C(=O)NCCCn2ccnc2)cc1[N+](=O)[O-],inconclusive: 25.2%
8,COP(=O)(OC)c1nc(-c2cccc3ccccc23)oc1N1CCOCC1,inconclusive: 25.3%
9,Cc1ccc(N/C=C2\CCCCC2=O)nc1,inconclusive: 24%
10,Oc1ccc(N=Nc2nccs2)c(O)c1,inconclusive: 54.9%
11,CC1(C)Oc2ccc3ccc(=O)oc3c2-c2cn[nH]c21,active: 26.5%
12,Cc1[nH]nc2c1C(c1ccc(-c3ccccc3C#N)o1)C(C#N)=C(N)O2 (stereo unspecified),active: 23.4%
13,COc1ccc(CCNc2oc(-c3cccc4ccccc34)nc2P(=O)(OC)OC)cc1OC,inconclusive: 26.9%
14,O=C1CN2C(=Nc3ccc(Cl)cc3C2c2ccccc2)CN1 (stereo unspecified),active: 27.9%
15,CCCNC(=O)C1CCN(S(=O)(=O)c2ccc3nc4c(c(C(=O)O)c3c2)CCCCC4)CC1,active: 25.7%
16,Cc1ccc(-c2n[nH]c(=O)c3ccccc23)cc1N,inactive: 12.6%
17,O=C(O)c1cc(-c2ccc(/C=C3/SC(=S)N(Cc4ccccc4)C3=O)o2)ccc1Cl,inconclusive: 49.2%
18,COc1cc(C2C3=C(CC(C)(C)CC3=O)OC3=C2C(=O)CC(C)(C)C3)cc([N+](=O)[O-])c1O,inconclusive: 24.2%
19,CCOc1ccc(NC(=O)c2ccccc2OC)cc1,inactive: 5.95%

row,Structure (SMILES),inhibition
1,CCOc1cc(C)c(Cl)cc1S(=O)(=O)NCC1CCCO1 (stereo unspecified),inactive: 1.73%
2,Cc1cc([N+](=O)[O-])ccc1NC(=S)NC(=O)Cc1ccccc1,active: 23.7%
3,CCC(=O)c1cc2c(C)cc(=O)oc2c(C)c1O,inactive: 4.77%
4,O=C(N/N=C/c1ccco1)c1ccc(C(=O)N/N=C/c2ccco2)o1,inconclusive: 23.4%
5,CCC(N=c1cc(-c2ccc(OC)cc2)oc2ccc(C)cc12)C(=O)O (stereo unspecified),inconclusive: 23.9%
6,COc1ccccc1C1C2=C(N=c3s/c(=C/c4cccc(OCC(=O)O)c4)c(=O)n31)c1ccccc1CC2 (stereo unspecified),inconclusive: 27.2%
7,O=C(CCC(=O)N(CC(=O)NC1CCCC1)Cc1ccc2c(c1)OCO2)Nc1ccccn1,active: 26.2%
8,COc1ccc2cc3cc(C(=O)NCc4ccccn4)oc3nc2c1,inconclusive: 17.6%
9,O=C(NCCC1=CCCCC1)C1CCN(S(=O)(=O)c2cccs2)CC1,inconclusive: 25.6%
10,COc1cccc(/C=N\NC(=O)c2sc(N)nc2C)c1OC,active: 24.5%
11,CCc1cc(=O)oc2c(C)c(O)c(CN(C)C)cc12,inactive: 9.74%
12,O=C1CC(N(Cc2ccco2)C(=O)Nc2ccc(F)cc2)C(=O)N1c1ccc(F)cc1 (stereo unspecified),active: 23.6%
13,Cc1c(NC(=O)c2ccccc2NS(=O)(=O)c2ccc(Br)cc2)c(=O)n(-c2ccccc2)n1C,active: 24.5%
14,Oc1ccc(NC(=S)N=Nc2c(O)[nH]c3ccc(Br)cc23)cc1,inconclusive: 27.6%
15,Cc1ccccc1-c1c(C)oc2cc(O)ccc2c1=O,inconclusive: 20.9%
16,COc1ccc(OC)c2sc(NC(=O)c3ccc(S(=O)(=O)N(C)C)cc3)nc12,active: 23.5%
17,O=C(CN1C(=O)c2ccccc2C1=O)Nc1cccc(S(=O)(=O)Nc2ccccc2Cl)c1,inconclusive: 28.1%
18,CCOCCCNC(=O)CN(c1cc([N+](=O)[O-])ccc1OC)S(C)(=O)=O,inactive: 2.57%
19,CCOC(=O)C1CCN(c2nc(N)c3c(N)nc(SCC(=O)O)cc3c2C#N)CC1,inconclusive: 34.7%

# Some of the entries so far, bar-delimited.
row | Structure (SMILES) | inhibition
2 | Cc1cc([N+](=O)[O-])ccc1NC(=S)NC(=O)Cc1ccccc1 | active: 23.7%
3 | CCC(=O)c1cc2c(C)cc(=O)oc2c(C)c1O | inactive: 4.77%
4 | O=C(N/N=C/c1ccco1)c1ccc(C(=O)N/N=C/c2ccco2)o1 | inconclusive: 23.4%
5 | CCC(N=c1cc(-c2ccc(OC)cc2)oc2ccc(C)cc12)C(=O)O (stereo unspecified) | inconclusive: 23.9%

# (more compounds)

row,Structure (SMILES),inhibition
1,Nc1ccc(-c2cc(-c3cccc(N)c3)nc(-c3ccccc3)n2)cc1,inconclusive: 24.8%
2,COc1cc(/C=C2\S/C(=N/S(=O)(=O)Cc3ccccc3)NC2=O)c([N+](=O)[O-])cc1OC,inconclusive: 26.5%
3,O=S(=O)(Nc1nccs1)c1ccc(Cl)cc1,inactive: -5.71%
4,COC(=O)c1cn(-c2ccccc2)c(=O)c2ccccc12,inactive: 0.56%
5,O=C(O)c1cc(-c2ccc(/C=C3\NC(=O)N(c4ccc(Cl)cc4)C3=O)o2)ccc1Cl,inconclusive: 35.8%
6,COc1ccc(C2CC(c3cccs3)=NN2c2nc(C)c(C(C)=O)s2)cc1OC (stereo unspecified),inconclusive: 24.1%
7,O=C(NC1CCCCC1)c1ccc(CNc2ccccc2)o1,inactive: 3.72%
8,CCn1c(=O)c(NC(=O)c2ccccc2)c2n(c1=S)CCCCC2,inconclusive: 29.4%
9,CC(C)CC(=O)N1CC(C)N(C(=O)CC(C)C)CC1C (stereo unspecified),inconclusive: 23.7%
10,COc1cc([N+](=O)[O-])cc(/C=N/NC(=O)Cn2cncn2)c1O,inconclusive: 27.6%
11,Cc1[nH]n(-c2ccccc2)c(=O)c1/C=N/N1C(=O)c2cccc3cccc(c23)C1=O,inconclusive: 23.6%
12,CNCc1ccccc1Sc1ccc(OC)cc1,inactive: -3.58%
13,Nc1nonc1-n1nnc(C(=O)N/N=C/c2cc(Br)ccc2O)c1CSC1=NCCS1,inconclusive: 25.8%
14,C/C(=C1/C(=O)N(c2ccc([N+](=O)[O-])cc2)N=C1c1ccccc1)N(C)C,inconclusive: 29.7%
15,O=C(Cc1ccccc1)NC1CCN(C(=O)NCc2ccccc2)CC1,inconclusive: 18.4%
16,CCOCCCn1c(SCC(=O)/C(C#N)=C(\C)N)nc2ccccc2c1=O,inconclusive: 23.5%
17,COc1ccc(-c2nn(-c3ccccc3)cc2/C=C\C(=O)Nc2ccc(C(=O)O)cc2)cc1,inconclusive: 27%
18,CC1=NN(c2ccccc2)C(=O)/C1=C\C=C1\N(C)c2ccccc2C1(C)C,inconclusive: 26.9%
